Results taken from paper PMC7342019.
Results are given in words; binding and its absence hold for the method and conditions named. Binding seen in cells or lysates may run through a third protein. Where a sequence is shown, tags or fusion partners need not be part of it.

Amino acid sequences for entries named in this document (tags omitted).
UniProt Q9KIB9: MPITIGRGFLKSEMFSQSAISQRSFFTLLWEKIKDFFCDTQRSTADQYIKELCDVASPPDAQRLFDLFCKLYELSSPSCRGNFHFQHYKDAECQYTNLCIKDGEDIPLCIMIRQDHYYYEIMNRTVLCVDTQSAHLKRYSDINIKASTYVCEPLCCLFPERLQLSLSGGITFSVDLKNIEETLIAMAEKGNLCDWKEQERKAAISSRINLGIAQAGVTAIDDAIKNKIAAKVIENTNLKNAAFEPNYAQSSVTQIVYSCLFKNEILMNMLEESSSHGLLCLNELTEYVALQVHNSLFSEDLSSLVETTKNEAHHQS

Molecular target: GFP-SifB (Salmonella) (UniProt Q9KIB9)
Assay: co-IP; HEK293ET cells co-transfected, lysed 24 h later in 150 mM NaCl, 50 mM Tris pH 7.4, 5 mM EDTA, 0.5% Triton X100, 5% glycerol; GFP-tagged protein precipitated with GFP-trap beads 2 h at 4°C; immunoblot with anti-GFP and anti-FLAG

B1: FLAG-TMEM127 (protein, UniProt O75204 1-238)
chain: MYAPGGAGLPGGRRRRSPGGSALPKQPERSLASALPGALSITALCTALAEPAWLHIHGGTCSRQELGVSDVLGYVHPDLLKDFCMNPQTVLLLRVIAAFCFLGILCSLSAFLLDVFGPKHPALKITRRYAFAHILTVLQCATVIGFSYWASELILAQQQQHKKYHGSQVYVTFAVSFYLVAGAGGASILATAANLLRHYPTEEEEQALELLSEMEENEPYPAEYEVINQFQPPPAYTP
**Q.** For B1, which binding is on record?
**A.** no binding
